{"source": "patent US20240270803A1", "about": "(Daiichi Sankyo, published 2024)", "binders": {"B1": {"name": "peptide derivative H322AT (designed binder)", "chain": "DPQFGLFSKYRTPNCSQHEGMACYALYEPVCGSDMSTYANECTLCMKIREGGHNIKIIRNGPCGG"}, "B2": {"name": "peptide H308 (designed binder)", "chain": "B1 chain with Q17D, E19A, Y24V, A39E, T43V"}, "B3": {"name": "peptide derivative H321AT (designed binder)", "chain": "B1 chain with Q17D, H18F, E19D, L26F"}}, "note": "Changes are numbered by the printed parent chain. These are yes or no findings as the source states them, for the method shown. Some binding calls cover weakened binding; strength is not graded here."}
{"target": "HTRA1 protease domain HTRA1 (cat) (human)", "experiment": "immunoprecipitation method: TALON resin capture of His tag-fused HTRA1 (cat), SDS-PAGE"}
{"binder": "B1", "binding": "binds"}
{"binder": "B2", "binding": "binds"}
{"binder": "B3", "binding": "binds"}
